Drawing on PMC11847685, this text covers binding for four molecules.

Sequences of proteins named here, by UniProt entry; tags and fusion partners are left off. A change or cut given only in a name is not applied to a line headed by its entry.
UniProt P06401: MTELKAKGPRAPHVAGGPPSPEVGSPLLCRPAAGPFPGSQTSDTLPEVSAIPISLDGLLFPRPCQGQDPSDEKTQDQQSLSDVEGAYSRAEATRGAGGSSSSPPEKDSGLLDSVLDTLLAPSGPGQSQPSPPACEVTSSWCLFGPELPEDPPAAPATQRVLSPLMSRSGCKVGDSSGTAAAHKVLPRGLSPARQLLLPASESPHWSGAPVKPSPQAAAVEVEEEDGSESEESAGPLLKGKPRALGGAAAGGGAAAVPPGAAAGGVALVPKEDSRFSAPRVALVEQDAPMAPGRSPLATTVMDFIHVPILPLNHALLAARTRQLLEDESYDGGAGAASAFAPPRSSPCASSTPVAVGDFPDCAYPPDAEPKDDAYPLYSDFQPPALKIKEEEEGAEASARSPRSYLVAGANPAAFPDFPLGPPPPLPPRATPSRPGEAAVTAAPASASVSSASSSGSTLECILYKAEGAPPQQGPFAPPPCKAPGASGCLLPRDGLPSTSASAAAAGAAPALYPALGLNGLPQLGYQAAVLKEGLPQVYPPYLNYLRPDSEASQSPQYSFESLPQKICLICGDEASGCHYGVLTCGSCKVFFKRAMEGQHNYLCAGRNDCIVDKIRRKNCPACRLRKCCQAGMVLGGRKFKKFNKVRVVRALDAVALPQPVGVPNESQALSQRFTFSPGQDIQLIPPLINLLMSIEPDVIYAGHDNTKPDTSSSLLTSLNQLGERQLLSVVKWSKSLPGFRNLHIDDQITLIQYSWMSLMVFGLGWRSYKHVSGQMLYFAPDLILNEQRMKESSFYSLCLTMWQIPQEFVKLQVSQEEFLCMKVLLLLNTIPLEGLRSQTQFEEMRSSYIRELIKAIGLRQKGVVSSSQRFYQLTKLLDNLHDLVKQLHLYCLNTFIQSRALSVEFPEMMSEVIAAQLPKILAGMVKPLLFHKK

Common to all, as to assay: co-IP; endogenous proteins of T47D, MCF-7 and BT-483 cell extracts (200 ug protein), primary antibody (2 ug) and protein A agarose beads, washed 5 times with lysis buffer and once with PBS, Western blot; cells with or without P4 (50 nM), with NT siRNA or SHP2 siRNA
In general terms: In western blotting, separated proteins are transferred to a membrane and probed.

Experiment [1] concerns the target Csk (human (endogenous in T47D, MCF-7 and BT-483)) (UniProt P41240).
The target of experiment [2] is caveolin-1 (human (endogenous in T47D, MCF-7 and BT-483)) (UniProt Q03135).
The target of experiment [3] is progesterone receptor (PR) (human (endogenous in T47D, MCF-7 and BT-483)) (UniProt P06401).
The target of experiment [4] is Csk (human (endogenous in T47D, MCF-7 and BT-483)), P41240. The conditions noted are these: remark: other sources report otherwise.
In experiment [5] the target is T1, caveolin-1 (human (endogenous in T47D, MCF-7 and BT-483)), Q03135.
T1 chain: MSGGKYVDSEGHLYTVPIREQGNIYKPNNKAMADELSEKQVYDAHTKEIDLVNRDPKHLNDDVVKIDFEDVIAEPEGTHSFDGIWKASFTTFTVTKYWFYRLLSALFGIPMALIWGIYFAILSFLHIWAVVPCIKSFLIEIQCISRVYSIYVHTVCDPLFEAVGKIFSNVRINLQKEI
As to conditions: remark: other sources report otherwise.

These are yes or no findings as the source states them, for the method shown. In cells and extracts the contact can be indirect. Some entries that bind do so weakly or less than the wild type.

B1: p140Cap (protein, UniProt Q9C0H9 1-1183)
chain: MGNAPSQDPERSSPPMLSADDAEYPREYRTLGGGGGGGSGGRRFSNVGLVHTSERRHTVIAAQSLEALSGLQKADADRKRDAFMDHLKSKYPQHALALRGQQDRMREQPNYWSFKTRSSRHTQGAQPGLADQAAKLSYASAESLETMSEAELPLGFSRMNRFRQSLPLSRSASQTKLRSPGVLFLQFGEETRRVHITHEVSSLDTLHALIAHMFPQKLTMGMLKSPNTAILIKDEARNVFYELEDVRDIQDRSIIKIYRKEPLYAAFPGSHLTNGDLRREMVYASRESSPTRRLNNLSPAPHLASGSPPPGLPSGLPSGLQSGSPSRSRLSYAGGRPPSYAGSPVHHAAERLGGAPAAQGVSPSPSAILERRDVKPDEDLASKAGGMVLVKGEGLYADPYGLLHEGRLSLAAAAGDPFAYPGAGGLYKRGSVRSLSTYSAAALQSDLEDSLYKAAGGGGPLYGDGYGFRLPPSSPQKLADVAAPPGGPPPPHSPYSGPPSRGSPVRQSFRKDSGSSSVFAESPGGKTRSAGSASTAGAPPSELFPGPGERSLVGFGPPVPAKDTETRERMEAMEKQIASLTGLVQSALLRGSEPETPSEKIEGSNGAATPSAPCGSGGRSSGATPVSGPPPPSASSTPAGQPTAVSRLQMQLHLRGLQNSASDLRGQLQQLRKLQLQNQESVRALLKRTEAELSMRVSEAARRQEDPLQRQRTLVEEERLRYLNDEELITQQLNDLEKSVEKIQRDVSHNHRLVPGPELEEKALVLKQLGETLTELKAHFPGLQSKMRVVLRVEVEAVKFLKEEPQRLDGLLKRCRGVTDTLAQIRRQVDEGVWPPPNNLLSQSPKKVTAETDFNKSVDFEMPPPSPPLNLHELSGPAEGASLTPKGGNPTKGLDTPGKRSVDKAVSVEAAERDWEEKRAALTQYSAKDINRLLEETQAELLKAIPDLDCASKAHPGPAPTPDHKPPKAPHGQKAAPRTEPSGRRGSDELTVPRYRTEKPSKSPPPPPPRRSFPSSHGLTTTRTGEVVVTSKKDSAFIKKAESEELEVQKPQVKLRRAVSEVARPASTPPIMASAIKDEDDEDRIIAELESGGGSVPPMKVVTPGASRLKAAQGQAGSPDKSKHGKQRAEYMRIQAQQQATKPSKEMSGSNETSSPVSEKPSASRTSIPVLTSFGARNSSISF
Consider B1, for which the binding entry in experiment [1], in experiment [2] and in experiment [3] was “binds” in each case.

B2: caveolin-1, Q03135 1-178 (protein)
chain: T1 chain
Regarding B2, the binding result in experiment [4] is “binds”.

B3: phosphorylated caveolin-1 (p-caveolin-1), Q03135 1-178 (protein)
chain: T1 chain
modifications: here or on the partner: phosphorylated (printed as p-caveolin-1); site not given
Take B3: the binding entry in experiment [4] is given as “binds”.

B4: Csk, P41240 1-450 (enzyme)
chain: MSAIQAAWPSGTECIAKYNFHGTAEQDLPFCKGDVLTIVAVTKDPNWYKAKNKVGREGIIPANYVQKREGVKAGTKLSLMPWFHGKITREQAERLLYPPETGLFLVRESTNYPGDYTLCVSCDGKVEHYRIMYHASKLSIDEEVYFENLMQLVEHYTSDADGLCTRLIKPKVMEGTVAAQDEFYRSGWALNMKELKLLQTIGKGEFGDVMLGDYRGNKVAVKCIKNDATAQAFLAEASVMTQLRHSNLVQLLGVIVEEKGGLYIVTEYMAKGSLVDYLRSRGRSVLGGDCLLKFSLDVCEAMEYLEGNNFVHRDLAARNVLVSEDNVAKVSDFGLTKEASSTQDTGKLPVKWTAPEALREKKFSTKSDVWSFGILLWEIYSFGRVPYPRIPLKDVVPRVEKGYKMDAPDGCPPAVYEVMKNCWHLDAAMRPSFLQLREQLEHIKTHELHL
In the case of B4, the binding result in experiment [5] is listed as “binds”.
